## Library screen at single concentrations

Chains of the proteins cited; added tags and fusions are not shown. Residues count along the entry.
UniProt Q8IDJ8, 1-583: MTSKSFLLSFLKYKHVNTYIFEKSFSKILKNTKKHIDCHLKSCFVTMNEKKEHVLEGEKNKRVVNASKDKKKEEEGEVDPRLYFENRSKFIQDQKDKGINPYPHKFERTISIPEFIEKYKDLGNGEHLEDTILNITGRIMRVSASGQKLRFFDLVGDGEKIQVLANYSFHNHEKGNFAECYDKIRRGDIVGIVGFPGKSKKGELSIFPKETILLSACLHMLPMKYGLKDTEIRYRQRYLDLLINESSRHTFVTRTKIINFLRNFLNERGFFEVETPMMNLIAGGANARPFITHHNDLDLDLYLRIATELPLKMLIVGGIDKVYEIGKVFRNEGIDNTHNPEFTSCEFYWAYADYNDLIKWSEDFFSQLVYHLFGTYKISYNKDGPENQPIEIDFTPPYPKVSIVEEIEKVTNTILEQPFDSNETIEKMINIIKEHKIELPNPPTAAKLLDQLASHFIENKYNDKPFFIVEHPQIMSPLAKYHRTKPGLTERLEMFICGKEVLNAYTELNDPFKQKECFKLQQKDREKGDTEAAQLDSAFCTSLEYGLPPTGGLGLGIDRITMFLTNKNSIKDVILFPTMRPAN
UniProt I6X8D2, whole entry: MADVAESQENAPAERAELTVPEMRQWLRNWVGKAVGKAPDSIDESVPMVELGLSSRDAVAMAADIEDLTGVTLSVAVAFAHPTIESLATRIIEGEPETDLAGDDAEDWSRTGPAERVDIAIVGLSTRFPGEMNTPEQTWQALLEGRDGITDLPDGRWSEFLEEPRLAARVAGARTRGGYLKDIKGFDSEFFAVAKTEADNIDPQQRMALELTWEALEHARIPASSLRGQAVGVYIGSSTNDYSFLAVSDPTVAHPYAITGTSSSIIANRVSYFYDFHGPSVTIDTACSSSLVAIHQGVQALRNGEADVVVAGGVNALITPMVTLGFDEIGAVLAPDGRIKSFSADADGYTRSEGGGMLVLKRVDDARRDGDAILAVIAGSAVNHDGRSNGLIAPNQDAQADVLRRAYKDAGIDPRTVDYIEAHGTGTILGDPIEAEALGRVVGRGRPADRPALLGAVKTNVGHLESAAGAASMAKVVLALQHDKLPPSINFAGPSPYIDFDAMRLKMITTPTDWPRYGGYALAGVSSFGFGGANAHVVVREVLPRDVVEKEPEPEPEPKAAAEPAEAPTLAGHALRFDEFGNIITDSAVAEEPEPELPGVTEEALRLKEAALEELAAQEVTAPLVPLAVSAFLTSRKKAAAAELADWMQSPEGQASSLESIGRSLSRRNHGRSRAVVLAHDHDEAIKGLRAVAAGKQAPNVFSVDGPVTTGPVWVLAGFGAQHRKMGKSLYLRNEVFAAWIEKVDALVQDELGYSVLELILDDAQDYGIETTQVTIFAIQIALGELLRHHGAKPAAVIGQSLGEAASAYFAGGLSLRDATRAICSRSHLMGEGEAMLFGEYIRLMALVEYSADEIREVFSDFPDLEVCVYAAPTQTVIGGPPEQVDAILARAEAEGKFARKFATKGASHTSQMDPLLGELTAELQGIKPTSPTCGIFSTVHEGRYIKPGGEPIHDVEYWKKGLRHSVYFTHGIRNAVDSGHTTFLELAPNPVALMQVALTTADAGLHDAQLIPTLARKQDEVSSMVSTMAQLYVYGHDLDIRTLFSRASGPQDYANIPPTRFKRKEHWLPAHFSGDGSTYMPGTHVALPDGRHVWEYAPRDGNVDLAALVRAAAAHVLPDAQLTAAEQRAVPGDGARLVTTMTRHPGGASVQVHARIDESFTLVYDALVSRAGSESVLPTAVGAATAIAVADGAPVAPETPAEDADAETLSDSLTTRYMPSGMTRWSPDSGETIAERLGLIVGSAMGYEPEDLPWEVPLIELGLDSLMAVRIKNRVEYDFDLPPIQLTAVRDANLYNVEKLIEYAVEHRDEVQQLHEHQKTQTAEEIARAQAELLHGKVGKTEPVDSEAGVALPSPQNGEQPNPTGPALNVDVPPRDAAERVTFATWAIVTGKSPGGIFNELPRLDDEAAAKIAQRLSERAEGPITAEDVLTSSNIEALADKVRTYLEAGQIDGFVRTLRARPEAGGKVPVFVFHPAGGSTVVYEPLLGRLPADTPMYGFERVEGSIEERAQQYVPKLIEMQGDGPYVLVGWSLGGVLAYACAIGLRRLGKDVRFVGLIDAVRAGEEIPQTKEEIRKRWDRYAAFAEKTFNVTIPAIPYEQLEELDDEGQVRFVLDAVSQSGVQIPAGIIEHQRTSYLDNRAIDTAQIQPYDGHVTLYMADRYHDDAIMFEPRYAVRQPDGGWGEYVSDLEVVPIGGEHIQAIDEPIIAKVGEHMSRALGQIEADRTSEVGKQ
UniProt P9WNZ1, whole entry: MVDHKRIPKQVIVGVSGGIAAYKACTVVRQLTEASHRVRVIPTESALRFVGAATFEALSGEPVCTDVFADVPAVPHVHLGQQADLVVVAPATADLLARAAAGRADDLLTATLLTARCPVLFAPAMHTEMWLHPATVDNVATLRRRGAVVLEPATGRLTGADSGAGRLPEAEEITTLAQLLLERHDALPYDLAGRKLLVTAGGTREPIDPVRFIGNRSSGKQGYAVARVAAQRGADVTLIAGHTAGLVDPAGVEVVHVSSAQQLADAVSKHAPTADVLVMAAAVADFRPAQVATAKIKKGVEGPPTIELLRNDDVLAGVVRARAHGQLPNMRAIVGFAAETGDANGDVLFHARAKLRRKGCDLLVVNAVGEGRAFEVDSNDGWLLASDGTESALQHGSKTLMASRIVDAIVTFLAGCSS
UniProt Q4DA54, 1-478: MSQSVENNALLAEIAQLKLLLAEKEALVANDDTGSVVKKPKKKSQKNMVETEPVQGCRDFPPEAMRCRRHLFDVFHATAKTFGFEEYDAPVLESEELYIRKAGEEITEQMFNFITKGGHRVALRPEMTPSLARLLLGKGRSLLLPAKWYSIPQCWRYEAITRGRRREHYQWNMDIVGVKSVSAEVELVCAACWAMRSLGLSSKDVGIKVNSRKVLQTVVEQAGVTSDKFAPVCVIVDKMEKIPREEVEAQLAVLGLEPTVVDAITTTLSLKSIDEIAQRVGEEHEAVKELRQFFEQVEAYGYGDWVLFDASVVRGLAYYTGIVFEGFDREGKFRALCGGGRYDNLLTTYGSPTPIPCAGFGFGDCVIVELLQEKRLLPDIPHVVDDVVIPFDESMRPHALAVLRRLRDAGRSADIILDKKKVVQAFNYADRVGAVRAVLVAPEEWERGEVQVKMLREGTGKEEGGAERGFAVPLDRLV
UniProt P9WFT3, whole entry: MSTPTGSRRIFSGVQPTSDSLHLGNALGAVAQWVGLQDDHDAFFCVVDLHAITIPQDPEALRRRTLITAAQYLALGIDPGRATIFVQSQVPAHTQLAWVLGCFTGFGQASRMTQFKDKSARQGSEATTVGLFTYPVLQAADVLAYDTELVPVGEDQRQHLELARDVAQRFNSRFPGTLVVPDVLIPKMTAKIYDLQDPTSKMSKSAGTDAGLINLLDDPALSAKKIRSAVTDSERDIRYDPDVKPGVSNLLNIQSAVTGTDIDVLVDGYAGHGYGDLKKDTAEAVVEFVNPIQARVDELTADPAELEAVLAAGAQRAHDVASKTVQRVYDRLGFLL
UniProt P9WPC5, whole entry: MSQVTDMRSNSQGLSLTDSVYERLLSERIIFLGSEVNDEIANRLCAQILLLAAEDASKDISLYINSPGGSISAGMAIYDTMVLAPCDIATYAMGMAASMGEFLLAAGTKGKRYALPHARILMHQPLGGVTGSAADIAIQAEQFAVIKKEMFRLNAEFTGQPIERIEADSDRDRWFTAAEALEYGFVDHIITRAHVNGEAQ
UniProt P9WPC3, whole entry partner: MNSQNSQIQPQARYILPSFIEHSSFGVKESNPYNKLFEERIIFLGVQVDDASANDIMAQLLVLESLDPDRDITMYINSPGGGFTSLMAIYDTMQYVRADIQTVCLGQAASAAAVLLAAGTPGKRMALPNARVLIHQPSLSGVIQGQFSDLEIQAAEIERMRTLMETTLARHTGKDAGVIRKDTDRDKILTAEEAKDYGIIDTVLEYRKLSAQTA

PfKRS1: 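Enzyme assay of the cytosolic lysyl-tRNA synthetase in 384-well plates, read by luminescence. Target: Lysine-tRNA ligase, Plasmodium falciparum 3D7 (UniProt Q8IDJ8). Concentration: 30 µM. Higher reads as stronger inhibition, judged from the few compounds that gave an IC50. Size under these conditions: about 69,000 compounds, about 49 of them at 50% or above in at least one test.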
Pks13 thioesterase: 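Polyketide synthase Pks13, Mycobacterium tuberculosis (UniProt I6X8D2). Enzyme assay of the thioesterase domain of polyketide synthase 13; the read-out is not stated. Tested at 30 µM. Higher reads as stronger inhibition (inferred from which compounds were picked for retests). About 67,000 compounds were tested under these conditions; 0.46% (about 300) showed 50% or more at least once.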
CoaBC: 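Enzyme assay of CoaBC with a phosphate dye (Biomol Green) read at 650 nm. Target: Coenzyme A biosynthesis protein CoaBC, Mycobacterium tuberculosis (UniProt P9WNZ1). Compounds at 30 µM. Direction is inferred from only a few compounds that gave an IC50; most scored high, so higher reads as stronger inhibition. Most strong results did not repeat in a second test. About 67,000 compounds were tested under these conditions; 0.06% (about 40) showed 50% or more at least once.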
TcHisRS: 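Histidine-tRNA ligase, Trypanosoma cruzi CL Brener (UniProt Q4DA54). Enzyme assay of histidyl-tRNA synthetase; the read-out is not stated. Concentration: 30 µM. The record gives no direction; compounds that gave an IC50 in retests scored well above the rest, so higher reads as stronger inhibition. Of about 69,000 compounds tested this way, about 31 (0.045%) reached 50% or more in at least one test.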
MtTrpRS: 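Enzyme assay of tryptophanyl-tRNA synthetase; the read-out is not stated. Target: Tryptophan-tRNA ligase, Mycobacterium tuberculosis (UniProt P9WFT3). Tested at 10 µM. Higher most likely means stronger inhibition; the record gives no direction and few retests gave an IC50. About 65,000 compounds were tested under these conditions; 0.098% (about 64) showed 50% or more at least once.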
ClpP1P2: 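ClpP1P2, Mycobacterium tuberculosis (UniProt P9WPC5 and UniProt P9WPC3). Protease assay of ClpP1P2, read by the AMC dye that it sets free. Concentration: 50 µM. Direction is inferred from only a few compounds that gave an IC50; most scored high, so higher reads as stronger inhibition. Most other retested compounds had strongly negative values. Size under these conditions: about 69,000 compounds, about 10 of them at 50% or above in at least one test.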

The filed quantity is “Percent Effect” (%).
The record does not define 0% and 100%; most values in the screen are far below 50% and negative numbers occur (in some assays of this library far below -100).
Compounds were drawn at random from those tested, without regard to their results.
Two or more numbers in one place are separate tests of the same structure; such repeats can differ widely.

With CCc1nc(NCC(=O)N2CCOCC2)c2c(n1)c(C)nn2CC the screen gave PfKRS1: 2.134%; Pks13 thioesterase: -22.77%; CoaBC: 3.096%; TcHisRS: 0.5464%; MtTrpRS: 1.407%; ClpP1P2: 4.367%.
With Cc1nc(C(C)C)ncc1C(=O)N1CCc2c(nc(N(C)C)[nH]c2=O)C1 the screen gave PfKRS1: 3.986%; Pks13 thioesterase: -8.026%; CoaBC: 3.421%; TcHisRS: 6.18%; MtTrpRS: -5.121%; ClpP1P2: -12.9%.
With Cc1cc(O)nc(C2CCCNC2)n1 (stereo not given) the screen gave PfKRS1: 1.693%; Pks13 thioesterase: 2.029%; CoaBC: 9.091%; TcHisRS: 2.632%; MtTrpRS: -5.543%; ClpP1P2: -17.55%.
With Cc1csc(C(Cc2ccsc2)NC(=O)C2CCN(S(C)(=O)=O)CC2)n1 (stereo not given) the screen gave PfKRS1: -0.5895%; Pks13 thioesterase: 3.547%; CoaBC: 0.2451%; TcHisRS: 0%; ClpP1P2: 0.1959%.
With O=C(C1CCOC1)N1Cc2ccccc2OC2(CCOCC2)C1 (stereo not given) the screen gave PfKRS1: 0.4729%; Pks13 thioesterase: 4.667%; CoaBC: 6.701% & 22.38%; TcHisRS: 7.143%; MtTrpRS: 1.795%; ClpP1P2: -11.5%.
With Cc1cc(NCc2noc(C(C)C)n2)nc(-c2ccccc2)n1 the screen gave PfKRS1: -6.425%; Pks13 thioesterase: -15.4%; CoaBC: -3.356%; TcHisRS: 1.031%; MtTrpRS: -1.387%; ClpP1P2: -3.63%.
With CCS(=O)(=O)N1Cc2nccn2CC(Cn2nc(C)nc2C)C1 (stereo not given) the screen gave PfKRS1: 5.702%; Pks13 thioesterase: -6.079%; CoaBC: 6.608%; TcHisRS: 2.542%; MtTrpRS: -0.3353%; ClpP1P2: -1.311%.
With CC1COCCN1C(=O)Cc1cc(Cl)c2c(c1)OCCO2 (stereo not given) the screen gave PfKRS1: 1.376%; Pks13 thioesterase: -11.23%; CoaBC: 1.058% & 27.19%; TcHisRS: -2.609%; MtTrpRS: 2.21%; ClpP1P2: -8.425%.
With Cc1nsc(NCc2ccc(S(=O)(=O)N(C)C(C)C)cc2)n1 the screen gave PfKRS1: 2.855%; Pks13 thioesterase: -9.134%; CoaBC: 4.912%; TcHisRS: 3.448%; MtTrpRS: 7.365%; ClpP1P2: -2.719%.
With CCOc1cc(CNCc2nc(C)cc(=O)[nH]2)c(Cl)cc1OC(C)C the screen gave PfKRS1: 1.319%; Pks13 thioesterase: -48.89%; CoaBC: -1.491%; TcHisRS: 6.667%; MtTrpRS: 2.642%; ClpP1P2: -10.89%.
With O=C(N[C@@H]1CCN(c2nc3ccccc3o2)C[C@H]1O)c1cnccn1 the screen gave PfKRS1: 4.139%; Pks13 thioesterase: 2.316%; CoaBC: 1.587%; TcHisRS: 4.082%; MtTrpRS: -2.916%; ClpP1P2: -1.844%.
With CC(C)c1n[nH]c(C2CN(Cc3nnc(C4CC4)n3C)CCO2)n1 (stereo not given) the screen gave PfKRS1: 9.87%; Pks13 thioesterase: -21.79%; CoaBC: 9.719%; TcHisRS: -0.8403%; MtTrpRS: -2.034%; ClpP1P2: -16.38%.
With O=C(NC1CCC1)[C@@H]1C[C@@H]2CCN(CCc3ccccc3)C[C@H]2O1 the screen gave PfKRS1: 1.437%; Pks13 thioesterase: 8.562%; CoaBC: 2.101%; TcHisRS: 3.061%; MtTrpRS: 0.6823%; ClpP1P2: -7.847%.
With CCCc1cnc(C)nc1N1CCC2(CCCO2)CC1 the screen gave PfKRS1: 0.3691%; Pks13 thioesterase: -8.54%; CoaBC: -3.688%; TcHisRS: 9.574%; MtTrpRS: -1.312%; ClpP1P2: -2.147%.
With CC(C)c1noc(CS(=O)(=O)CC(=O)NCCOc2ccccc2)n1 the screen gave PfKRS1: 8.044%; Pks13 thioesterase: -22.31%; CoaBC: 5.785%; TcHisRS: -0.578%; MtTrpRS: -0.08842%; ClpP1P2: 11.95%.
With CCNC(=O)C(C)(C)NC(=O)NCc1cccc(Br)c1 the screen gave PfKRS1: 5.128%; Pks13 thioesterase: -10.48%; CoaBC: 7.742%; TcHisRS: 0.4926%; MtTrpRS: 0.09139%; ClpP1P2: -2.894%.
With O=C(C1CCOC1)N1CCC2(CC1)Cc1ccccc1CNC2=O (stereo not given) the screen gave PfKRS1: 2.71%; Pks13 thioesterase: -8.901%; CoaBC: 0.9852%; TcHisRS: -3.093%; MtTrpRS: -4.988%; ClpP1P2: -13.3%.

Once more, the final 2:

structure,PfKRS1,Pks13 thioesterase,CoaBC,TcHisRS,MtTrpRS,ClpP1P2
CCNC(=O)C(C)(C)NC(=O)NCc1cccc(Br)c1,5.128,-10.48,7.742,0.4926,0.09139,-2.894
O=C(C1CCOC1)N1CCC2(CC1)Cc1ccccc1CNC2=O (stereo not given),2.71,-8.901,0.9852,-3.093,-4.988,-13.3

From ChEMBL document CHEMBL3988442, “University of Dundee, Small-Polar-MMV Screening Library” (2021).